Measurements reported in PubChem BioAssay AID1259264 (Sanger Institute, 2017)
Here is a random part of 794 deposited reagents. In the full data, 15 (1.9%) got an active call. 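Calls rest on knock-down alone at z-score below -3; synergy scores with the three drugs do not decide them.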 A number with no mark means an inactive call. Viability is capped at 1. Further read-outs or replicates are left out here. The record does not give: the amount of reagent, the time to read-out.

Purpose: 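Kinase-wide knock-down to find genes that strengthen targeted drug effects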 (primary screen)
System: CL40 human colorectal cancer cells
Knock-down reagent: siRNA pool against human genes
Challenge: DMSO, or an anchor drug: BYL719 at 1 µM, cetuximab at 5 µg/ml, or trametinib at 10 nM
Detection: 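Viability as a fraction of non-targeting pool control (replicates averaged), control-based robust z-score, plus averaged synergy for each drug: BYL719 1 µM, cetuximab 5 µg/ml, trametinib 10 nM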
Direction: robust z-score, siRNA alone and viability, siRNA alone: higher = more viable cells
Hit rule: 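a gene counts as essential when knock-down without drug gives a robust z-score below -3, meaning fewer cells; synergy scores play no part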
Meaning of the calls: active = essential (lowers viability alone); inactive = not essential

RIPK2 (receptor interacting serine/threonine kinase 2): robust z-score, siRNA alone = 0.209; viability, siRNA alone (fraction of control) = 0.976
LRRK2 (leucine rich repeat kinase 2): robust z-score, siRNA alone = 0.539; viability, siRNA alone (fraction of control) = 1
DAPK1 (death associated protein kinase 1): robust z-score, siRNA alone = 0.539; viability, siRNA alone (fraction of control) = 1
PDK1 (pyruvate dehydrogenase kinase 1): robust z-score, siRNA alone = 0.0561; viability, siRNA alone (fraction of control) = 0.965
ROCK2 (Rho associated coiled-coil containing protein kinase 2): robust z-score, siRNA alone = 0.157; viability, siRNA alone (fraction of control) = 0.973
CSNK1G1 (casein kinase 1 gamma 1): robust z-score, siRNA alone = 0.539; viability, siRNA alone (fraction of control) = 1
CHEK2 (checkpoint kinase 2): robust z-score, siRNA alone = -0.191; viability, siRNA alone (fraction of control) = 0.948
MAST2 (microtubule associated serine/threonine kinase 2): robust z-score, siRNA alone = 0.539; viability, siRNA alone (fraction of control) = 1

Just “viability, siRNA alone (fraction of control)”, for 2 of the entries above:
LRRK2 (leucine rich repeat kinase 2) = 1
DAPK1 (death associated protein kinase 1) = 1

Further reagents:
PIM3 (Pim-3 proto-oncogene, serine/threonine kinase): robust z-score, siRNA alone = 0.539; viability, siRNA alone (fraction of control) = 1
CDKL1 (cyclin dependent kinase like 1): robust z-score, siRNA alone = -0.372; viability, siRNA alone (fraction of control) = 0.935
PRKAR2A: robust z-score, siRNA alone = 0.539; viability, siRNA alone (fraction of control) = 1
STK38L (serine/threonine kinase 38 like): robust z-score, siRNA alone = 0.408; viability, siRNA alone (fraction of control) = 0.991
